# Not every detail of the peptide structures is certain; ends, links or a residue may be inferred. Non-standard residues stand in square brackets, D forms with d. Residues, ends and D or L forms follow the SMILES beside them. 2Thi = N[C@@H](Cc1cccs1)C(=O)O
# What was measured:
# [1] = tested on: isolated rat uterus; assay type: cell-based
# Experimental: (§1) The bradykinin antagonists were assayed on isolated rat uterus in natural or induced estrus and on guinea pig ileum, according to the commonly accepted assay methods for bradykinin and related kinins as described by Trautschold (Handbook of Expt. Pharmacol. Vol. 25, Springer Verlag, pp 53-55, 1970) for inhibition of the myotropic activity of bradykinin. The inhibition potencies, as determined according to the commonly accepted manner described by Schild for antagonists of biologically active compounds (Br. J. Pharmacol. 2:189, 1947), are determined on isolated rat uterus (RUT) and isolated guinea pig ileum (GPI). In the assays, a dose-response curve is determined for the reference substance bradykinin. The dose of bradykinin which produced a half maximal contraction of tissue is the ED50 dose. An amount of bradykinin equivalent to twice the ED50 dose is administered to the tissue 30 seconds after the start of incubation of the tissue with a dose of antagonist. Doses of antagonist are increased in this protocol until pre-incubation with a dose of antagonist reduces the contraction in response to the double ED50 dose of bradykinin to response of a single ED50 dose of bradykinin. The pA2 value represents the negative logarithm of the molar concentration of antagonist necessary to reduce the response of a double ED50 dose of bradykinin to that of an ED50 dose. One unit of pA2 value represents an order of magnitude change in potency. For comparison, the negative log of the dose of BK, the dose which causes half maximal contraction of the tissues, is commonly known as the pD2 value. The pD2 value for bradykinin is 7.9 on the rat uterus and 7.4 on the guinea pig ileum.
# [2] = tested on: guinea pig ileum; assay type: cell-based
# Experimental: as §1
# (§2) In each case, as shown, the BK-related antagonists inhibited contractions produced by BK-related agonists, but had no effect on the non-kinin myotropic peptide substances. The inhibition potencies are listed as pA2 values as described above.
# [3] = tested on: isolated guinea pig ileum; assay type: cell-based; settings: for pA2/GPI: isolated guinea pig ileum, vs double ED50 dose of bradykinin, Schild; for GPI pA2 / GPI activity printed as 0 (no antagonism): guinea pig ileum, position 3 table
# Experimental: as §1, §2
# [4] = tested on: rat blood pressure; assay: Antagonism of the bradykinin depressor effect on blood pressure in the anesthetized rat; assay type: in vivo; settings: for time for depressor effect of bradykinin to return to normal response after terminating infusion: after infusion at 25 μg/min; for response to a 25 mm depressor dose (ED25 mm) of bradykinin during antagonist infusion: infused at 25 μg/min, reduced from 25 mm
SMILES,pA2/GPI [3],time for depressor effect of bradykinin to return to normal response after terminating infusion [4] [min],response to a 25 mm depressor dose (ED25 mm) of bradykinin during antagonist infusion [4] [mm],GPI pA2 [3],GPI activity printed as 0 (no antagonism) [3],further results
"N=C(N)NCCC[C@H](NC(=O)[C@H](Cc1cccs1)NC(=O)[C@@H](Cc1ccccc1)NC(=O)[C@H](CO)NC(=O)[C@H](Cc1cccs1)NC(=O)CNC(=O)[C@@H]1CCCN1C(=O)[C@@H]1CCCN1C(=O)[C@@H](N)CCCNC(=N)N)C(=O)O [Example 6, Arg-Pro-Pro-Gly-Thi-Ser-DPhe-Thi-Arg] (H-RPPG[2Thi]S[dF][2Thi]R-OH)",6.3,≤ 5,10,–,–,"pA2/RUT ([1]; isolated rat uterus, vs double ED50 dose of bradykinin, Schild): 6.5; GUINEA PIG ILEUM KAL (pA2) ([2]; agonist kallidin (Lys-BK)): 6.4; GUINEA PIG ILEUM MK--BK (pA2) ([2]; agonist methionyl-lysyl-BK): 5.2; GUINEA PIG ILEUM BK (pA2) ([3]; specificity table, agonist BK): 6.3"
"N=C(N)NCCC[C@H](NC(=O)[C@H](Cc1ccccc1)NC(=O)[C@@H](Cc1ccccc1)NC(=O)[C@H](CO)NC(=O)[C@H](Cc1ccccc1)NC(=O)CNC(=O)[C@@H]1CCCN1C(=O)[C@@H]1CCCN1C(=O)[C@@H](N)CCCNC(=N)N)C(=O)O [Example 1, Arg-Pro-Pro-Gly-Phe-Ser-DPhe-Phe-Arg] (H-RPPGFS[dF]FR-OH)",5.0,–,–,5.0,–,–
"N=C(N)NCCC[C@@H](N)C(=O)N[C@@H](CCCNC(=N)N)C(=O)N1CCC[C@H]1C(=O)N1CCC[C@@H]1C(=O)NCC(=O)N[C@@H](Cc1cccs1)C(=O)N[C@@H](CO)C(=O)N[C@H](Cc1ccccc1)C(=O)N[C@@H](Cc1cccs1)C(=O)N[C@@H](CCCNC(=N)N)C(=O)O [Example 16, DArg-Arg-Pro-DPro-Gly-Thi-Ser-DPhe-Thi-Arg] (H-[dR]RP[dP]G[2Thi]S[dF][2Thi]R-OH)",–,–,–,–,0,"RUT pA2 ([1]; rat uterus, position 3 table): 5.2"
"N=C(N)NCCC[C@@H](N)C(=O)N[C@@H](CCCNC(=N)N)C(=O)N1CCC[C@H]1C(=O)N1CCC[C@H]1C(=O)NCC(=O)N[C@@H](Cc1cccs1)C(=O)N[C@@H](CO)C(=O)N[C@H](Cc1ccccc1)C(=O)N[C@@H](Cc1cccs1)C(=O)N[C@@H](CCCNC(=N)N)C(=O)O [Example 15, DArg-Arg-Pro-Pro-Gly-Thi-Ser-DPhe-Thi-Arg] (H-[dR]RPPG[2Thi]S[dF][2Thi]R-OH)",6.1,≤ 5,10,6.1,–,–
"N=C(N)NCCC[C@H](NC(=O)[C@H](Cc1ccccc1)NC(=O)[C@@H](Cc1ccccc1)NC(=O)[C@H](CO)NC(=O)[C@H](Cc1ccccc1)NC(=O)CNC(=O)[C@H]1CCCN1C(=O)[C@@H]1CCCN1C(=O)[C@@H](N)CCCNC(=N)N)C(=O)O [Example 59, Arg-Pro-DPro-Gly-Phe-Ser-DPhe-Phe-Arg] (H-RP[dP]GFS[dF]FR-OH)",–,–,–,–,0,"agonist activity in the uterus assay [1]: destroys agonist activity; RUT activity printed as 0 (no activity) ([1]; rat uterus, position 3 table): 0; antagonist activity in the ileum assay [3]: eliminates antagonist activity"

# Source: patent US4801613A, “Bradykinin antagonist peptides” (Nova Technology Limited Partnership, priority 1987, dated 1989)
